Laboratory results as given in patent US20090143434A1 (priority 2007, published 2009).
Where two headings read alike, the source gives them in different places.

Protein sequences, listed by entry. Tags and fused reporters are not part of them.
UniProt Q13936, whole entry: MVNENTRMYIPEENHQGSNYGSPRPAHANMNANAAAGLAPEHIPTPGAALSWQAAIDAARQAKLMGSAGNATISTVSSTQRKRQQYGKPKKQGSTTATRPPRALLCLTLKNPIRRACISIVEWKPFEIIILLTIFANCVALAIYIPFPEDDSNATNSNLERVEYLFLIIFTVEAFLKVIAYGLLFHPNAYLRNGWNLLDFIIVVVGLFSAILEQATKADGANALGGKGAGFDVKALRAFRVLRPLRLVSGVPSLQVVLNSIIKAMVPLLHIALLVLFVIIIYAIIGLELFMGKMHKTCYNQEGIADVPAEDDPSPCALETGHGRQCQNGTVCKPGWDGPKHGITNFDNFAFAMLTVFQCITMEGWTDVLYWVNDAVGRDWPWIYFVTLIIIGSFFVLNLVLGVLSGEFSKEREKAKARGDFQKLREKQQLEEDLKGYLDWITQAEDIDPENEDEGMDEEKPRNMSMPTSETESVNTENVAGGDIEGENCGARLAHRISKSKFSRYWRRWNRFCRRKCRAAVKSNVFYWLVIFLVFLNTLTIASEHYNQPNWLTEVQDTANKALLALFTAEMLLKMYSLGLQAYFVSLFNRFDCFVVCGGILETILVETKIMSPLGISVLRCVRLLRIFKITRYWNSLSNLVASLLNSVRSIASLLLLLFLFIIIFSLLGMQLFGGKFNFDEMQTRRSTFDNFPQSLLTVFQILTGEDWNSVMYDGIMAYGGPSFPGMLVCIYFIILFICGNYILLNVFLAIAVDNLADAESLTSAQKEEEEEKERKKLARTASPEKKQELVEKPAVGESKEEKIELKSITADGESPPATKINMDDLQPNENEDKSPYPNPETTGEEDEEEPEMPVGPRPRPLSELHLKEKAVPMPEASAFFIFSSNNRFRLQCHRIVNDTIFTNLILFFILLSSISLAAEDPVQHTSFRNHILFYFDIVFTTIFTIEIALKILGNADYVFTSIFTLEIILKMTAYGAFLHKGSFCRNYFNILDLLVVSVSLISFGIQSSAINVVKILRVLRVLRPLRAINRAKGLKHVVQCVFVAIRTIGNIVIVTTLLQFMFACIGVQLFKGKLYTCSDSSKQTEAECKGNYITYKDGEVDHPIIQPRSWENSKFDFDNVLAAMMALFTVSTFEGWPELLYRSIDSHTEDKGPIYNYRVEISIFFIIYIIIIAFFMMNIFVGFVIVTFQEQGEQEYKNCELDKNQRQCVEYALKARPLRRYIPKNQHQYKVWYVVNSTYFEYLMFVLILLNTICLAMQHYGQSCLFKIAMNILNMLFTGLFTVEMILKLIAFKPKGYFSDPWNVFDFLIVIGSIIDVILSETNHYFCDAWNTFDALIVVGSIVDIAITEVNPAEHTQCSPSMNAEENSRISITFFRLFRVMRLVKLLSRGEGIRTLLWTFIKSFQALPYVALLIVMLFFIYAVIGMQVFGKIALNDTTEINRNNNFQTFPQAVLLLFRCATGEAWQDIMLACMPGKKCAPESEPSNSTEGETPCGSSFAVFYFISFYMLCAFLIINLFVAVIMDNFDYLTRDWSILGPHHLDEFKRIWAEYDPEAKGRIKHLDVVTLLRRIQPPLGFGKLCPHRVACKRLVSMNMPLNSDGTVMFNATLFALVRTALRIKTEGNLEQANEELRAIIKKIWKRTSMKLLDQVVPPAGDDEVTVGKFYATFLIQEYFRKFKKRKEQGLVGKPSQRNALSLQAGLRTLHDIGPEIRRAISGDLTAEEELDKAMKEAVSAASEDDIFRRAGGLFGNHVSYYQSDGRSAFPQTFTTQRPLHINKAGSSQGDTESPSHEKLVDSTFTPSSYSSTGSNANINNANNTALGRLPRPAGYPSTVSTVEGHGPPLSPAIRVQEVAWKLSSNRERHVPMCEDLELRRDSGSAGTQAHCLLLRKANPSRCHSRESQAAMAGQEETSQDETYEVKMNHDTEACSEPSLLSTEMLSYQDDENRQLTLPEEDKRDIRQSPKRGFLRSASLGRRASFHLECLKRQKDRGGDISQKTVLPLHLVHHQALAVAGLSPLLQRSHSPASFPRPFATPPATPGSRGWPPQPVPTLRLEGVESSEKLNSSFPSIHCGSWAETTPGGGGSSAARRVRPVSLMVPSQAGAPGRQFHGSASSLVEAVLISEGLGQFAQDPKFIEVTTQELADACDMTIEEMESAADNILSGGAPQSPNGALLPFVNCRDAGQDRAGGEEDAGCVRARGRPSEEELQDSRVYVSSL
UniProt Q14524, whole entry: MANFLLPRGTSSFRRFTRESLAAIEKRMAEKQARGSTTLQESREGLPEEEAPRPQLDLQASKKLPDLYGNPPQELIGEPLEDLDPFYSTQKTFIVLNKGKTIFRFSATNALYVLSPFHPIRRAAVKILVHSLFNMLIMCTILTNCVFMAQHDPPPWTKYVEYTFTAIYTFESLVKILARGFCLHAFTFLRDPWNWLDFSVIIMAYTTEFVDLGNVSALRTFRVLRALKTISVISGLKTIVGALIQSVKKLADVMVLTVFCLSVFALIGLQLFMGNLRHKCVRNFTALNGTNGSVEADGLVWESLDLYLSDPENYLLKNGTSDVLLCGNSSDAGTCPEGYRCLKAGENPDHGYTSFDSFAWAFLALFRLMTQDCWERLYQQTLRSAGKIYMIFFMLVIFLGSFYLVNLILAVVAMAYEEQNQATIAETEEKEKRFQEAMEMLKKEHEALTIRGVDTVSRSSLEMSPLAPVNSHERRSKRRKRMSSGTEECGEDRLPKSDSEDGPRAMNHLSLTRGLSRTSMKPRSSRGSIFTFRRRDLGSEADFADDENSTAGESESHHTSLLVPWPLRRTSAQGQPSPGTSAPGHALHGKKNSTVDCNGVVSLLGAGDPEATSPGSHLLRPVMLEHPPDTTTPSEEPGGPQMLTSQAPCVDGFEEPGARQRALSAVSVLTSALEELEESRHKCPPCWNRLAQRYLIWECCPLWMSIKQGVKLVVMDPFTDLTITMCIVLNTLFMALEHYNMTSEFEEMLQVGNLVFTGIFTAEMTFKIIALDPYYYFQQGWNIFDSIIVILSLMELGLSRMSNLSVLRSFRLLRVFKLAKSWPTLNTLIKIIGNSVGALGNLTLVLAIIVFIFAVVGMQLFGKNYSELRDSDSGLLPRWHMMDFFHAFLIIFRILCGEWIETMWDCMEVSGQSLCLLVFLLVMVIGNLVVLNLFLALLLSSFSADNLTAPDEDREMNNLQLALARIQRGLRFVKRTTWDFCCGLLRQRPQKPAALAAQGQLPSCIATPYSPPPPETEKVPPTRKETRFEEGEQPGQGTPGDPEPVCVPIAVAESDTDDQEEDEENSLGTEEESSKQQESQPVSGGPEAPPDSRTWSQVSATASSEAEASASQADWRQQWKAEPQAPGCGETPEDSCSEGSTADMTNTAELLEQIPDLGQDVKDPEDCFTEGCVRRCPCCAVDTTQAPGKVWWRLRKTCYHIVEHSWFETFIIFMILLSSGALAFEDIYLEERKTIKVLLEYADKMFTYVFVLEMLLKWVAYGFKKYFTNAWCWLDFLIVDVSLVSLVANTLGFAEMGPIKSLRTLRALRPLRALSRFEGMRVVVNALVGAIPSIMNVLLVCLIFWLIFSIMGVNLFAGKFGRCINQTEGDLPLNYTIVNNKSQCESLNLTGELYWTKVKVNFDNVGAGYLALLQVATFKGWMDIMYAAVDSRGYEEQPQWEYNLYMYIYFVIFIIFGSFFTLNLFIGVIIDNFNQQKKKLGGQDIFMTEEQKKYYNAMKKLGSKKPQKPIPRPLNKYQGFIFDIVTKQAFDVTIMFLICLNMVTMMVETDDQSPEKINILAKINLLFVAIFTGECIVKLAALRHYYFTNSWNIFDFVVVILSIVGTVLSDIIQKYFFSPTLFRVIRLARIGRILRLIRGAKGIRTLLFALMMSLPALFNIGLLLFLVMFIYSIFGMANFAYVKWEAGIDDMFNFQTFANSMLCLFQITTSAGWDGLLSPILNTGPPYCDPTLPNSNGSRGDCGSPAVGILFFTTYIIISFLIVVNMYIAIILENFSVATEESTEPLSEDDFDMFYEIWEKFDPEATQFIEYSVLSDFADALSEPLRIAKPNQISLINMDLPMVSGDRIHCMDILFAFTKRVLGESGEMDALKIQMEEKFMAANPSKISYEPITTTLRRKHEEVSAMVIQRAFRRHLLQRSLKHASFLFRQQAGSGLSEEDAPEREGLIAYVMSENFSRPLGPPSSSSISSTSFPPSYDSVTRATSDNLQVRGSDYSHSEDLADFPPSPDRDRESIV

What was measured:
[1] = biological target: hCav1.2 (Homo sapiens, UniProt Q13936); test: voltage clamp currents in mammalian cells stably transfected with cloned ion channel cDNA, hCav1.2; format: cell-based
Excerpt: (§1) Nonlinear least squares fits of the current ratio data yielded the best fit value for the IC50 concentration. A positive control was included for each channel tested in the study.

[2] = biological target: hNav1.5 (Homo sapiens, UniProt Q14524); test: voltage clamp currents in mammalian cells stably transfected with cloned ion channel cDNA, hNav1.5; format: cell-based
Excerpt: as §1

[3] = 0.1 Hz, read-out: Estimated IC50 at 0.1 Hz
[4] = 3 Hz, read-out: Estimated IC50 at 3 Hz

O=c1[nH]c2ccccc2n1CCCN1CCC(n2c(=O)[nH]c3cc(Cl)ccc32)CC1 [domperidone, 1,3-dihydro-5-chloro-1-(1-(3-(2,3-dihydro-2-oxo-1H-benzimidazol-1-yl)propyl)-4-piperidinyl)-2H-benzimidazol-2-one]
IC50 [1, 3]: 101 µM | IC50 [1, 4]: 1.01 µM | IC50 [2, 3]: 41.8 µM | IC50 [2, 4]: 3.2 µM
